# Measurements as given in patent US10624946B2, “Treating liver diseases” (Mayo Foundation for Medical Education and Research, priority 2005, dated 2020).
# At least one compound was matched to its structure with a doubt left.
# Assays:
# [1] = system: liver cysts isolated from PCK rats; assay: Cyst growth and expansion of PCK rat bile duct explants in 3-D culture (Example 1); assay type: cell-based; details: somatostatin 10^−6 M twice a day
# [2] = system: cAMP levels in liver cysts isolated from PCK rats; assay: cAMP measurement in liver cysts grown in 3-D culture (Example 1); assay type: cell-based; details: somatostatin 10^−6 M, PCK rat liver cysts in 3-D culture
# [3] = system: cAMP concentration in bile ducts from normal and PCK rats; assay: cAMP concentration in freshly isolated bile ducts, with or without forskolin (Example 2); assay type: cell-based, rat; details: for decrease of cAMP levels: forskolin 10^−7 M 15 min pretreatment, then somatostatin 10^−6 M 15 min
# [4] = system: bile ducts from PCK rats; assay: Cystic area of PCK bile ducts in 3-D culture (Example 2); assay type: cell-based, rat
# [5] = system: cAMP level in PCK bile ducts; assay: cAMP level in PCK bile ducts in 3-D culture (Example 2); assay type: cell-based, rat; details: somatostatin 10^−6 M every 12 hours for up to five days
# [6] = somatostatin 10^−6 M every 12 hours for up to five days
compound,measurement,setting,value
"C[C@H](N)C(=O)NCC(=O)N[C@H]1CSSC[C@@H](C(=O)O)NC(=O)[C@H](CO)NC(=O)[C@H]([C@@H](C)O)NC(=O)[C@H](Cc2ccccc2)NC(=O)[C@H]([C@@H](C)O)NC(=O)[C@H](CCCCN)NC(=O)[C@H](Cc2c[nH]c3ccccc23)NC(=O)[C@H](Cc2ccccc2)NC(=O)[C@H](Cc2ccccc2)NC(=O)[C@H](CC(N)=O)NC(=O)[C@H](CCCCN)NC1=O [Somatostatin, somatostatin]","cystic area, day 1 to day 5","[1]; 3-D culture, untreated cysts more than doubled",remained relatively unchanged
same,cyst growth and expansion,"[1]; day 1 to day 5, 3-D culture, PCK rat liver cysts",prevented cyst growth and expansion
same,cAMP level relative to untreated liver cysts,[2],less than half
same,reduction of cAMP concentration,"[3]; bile ducts from PCK rats, no forskolin, somatostatin 10^−6 M",43%
same,basal level of cAMP,"[3]; bile ducts from normal rats, no forskolin, somatostatin 10^−6 M 15 min",did not affect
same,decrease of cAMP levels,[3]; cystic (PCK) bile ducts,39%
same,decrease of cAMP levels,[3]; normal bile ducts,53%
same,bile ducts with decreased cystic area,[4]; [6],69%
same,cystic area over time,[4]; [6],did not change
same,bile ducts with increased cystic area,"[4]; somatostatin 10^−6 M every 12 hours, 76% without somatostatin",8%
same,cAMP level,[5],significantly reduced
